About 5,400 (1.8%) of roughly 300,000 compounds were called active. The shares of active, inactive and inconclusive entries below differ from those in the screen. The call rests on the fitted dose curve; tested in HEK293 cells. Potencies of inconclusive entries are doubtful fits and often do not repeat.
Assay: qHTS for inhibitors of binding or entry into cells for Marburg Virus
Conditions: Marburg virus pseudotyped entry inhibition, cell reporter; activity change, negative = inhibition: at 37.8 µM (top of the series) unless noted
In the case of `Cc1ccc(Cc2c(C)nc3nc(SCC(=O)NCCCN4CCCCC4)nn3c2C)cc1`, the Potency is reported as inconclusive: 3.16 µM [inhibitor, partial curve, poor fit].
In the case of `CC(C)COC(=O)Nc1nnc(Cc2ccccc2)s1`, the Potency is reported as inconclusive: 0.631 µM [activator, full curve, poor fit].
In the case of `Cc1cccc(NP(=O)(Oc2ccccc2F)Oc2ccccc2F)c1C`, the Potency is reported as inconclusive: 0.316 µM [inhibitor, partial curve, poor fit].
In the case of `Cn1cc(C(=O)c2ccccc2)cc1-c1nc2ccccc2n1C`, the Potency is reported as inconclusive: 35.5 µM [inhibitor, single point].
With `Clc1cccc(CNCCNCc2cccc(Cl)c2)c1` the Potency was inconclusive: 20 µM [inhibitor, single point].
In the case of `CCOc1cc(C)c(S(=O)(=O)NC2CC(C)(C)NC(C)(C)C2)cc1C`, the Potency is reported as inconclusive: 7.08 µM [inhibitor, partial curve, poor fit].
With `O=C(NC(=S)Nc1ccccc1N1CCOCC1)c1cccs1` the Potency was inconclusive: 1.26 µM [activator, single point].
For `CCOc1cc(/C=N\NC(=O)CC(=O)NCCc2ccccc2)ccc1O`, the Potency was inconclusive: 0.794 µM [activator, full curve, poor fit].
For `Cc1ccc(NC(=O)c2noc3c2CCc2ccccc2-3)cc1`, the “activity change, negative = inhibition” value was inactive: -27.6% [at 46.1 µM].
In the case of `Cc1ccc(C(=O)C2CN3CCC2CC3)cc1` (configuration not stated), the “activity change, negative = inhibition” value is reported as inactive: -0.914%.
In the case of `CCOC(=O)c1cc(S(=O)(=O)NC2CCC(C)CC2)cn1C` (configuration not stated), the Potency is reported as inconclusive: 12.6 µM [inhibitor, partial curve, poor fit].
For `O=C(O)Cc1csc(-c2ccc(F)cc2)n1`, the Potency was inconclusive: 31.6 µM [activator, single point].
For `COc1cc(/C=C/c2nnc3c4ccccc4ncn23)cc(OC)c1OC`, the Potency was inconclusive: 35.5 µM [inhibitor, partial curve, poor fit].
With `CCCSc1ncc(Cl)c(C(=O)Nc2ccc(CC)cc2)n1` the Potency was inconclusive: 3.55 µM [inhibitor, partial curve, poor fit].
For `CCCCOc1ccc(-c2nc(-c3cccnc3)no2)cc1`, the Potency was inconclusive: 14.1 µM [activator, partial curve, poor fit].
For `Cn1c(Cn2nnc3ccccc32)nnc1SCC(=O)Nc1nccs1`, the Potency was inconclusive: 35.5 µM [activator, single point].
In the case of `Oc1cccc(Nc2nc(-c3ccccc3)nc3ccccc23)c1`, the Potency is reported as inconclusive: 35.5 µM [inhibitor, single point].
For `COc1ccc(CC(=O)Nc2nc(-c3ccc(F)c(F)c3)cs2)cc1OC`, the Potency was active: 10 µM.
In the case of `COc1ccc(C(NC(C)=O)c2cc(Cl)c3cccnc3c2O)cc1OC` (configuration not stated), the Potency is reported as inconclusive: 2.24 µM [inhibitor, full curve, poor fit].
For `Cc1c(Cl)ccc2c1NC(=O)[C@]21N[C@@H](CCC(N)=O)[C@H]2C(=O)N(c3ccc(F)cc3)C(=O)[C@H]21`, the “activity change, negative = inhibition” value was inactive: -7.36% [at 46.1 µM].
In the case of `COc1ccc(NC(=O)Cn2c(=O)n(-c3ccccc3)c(=O)c3ccc(C(=O)NCc4ccc5c(c4)OCO5)cc32)cc1`, the “activity change, negative = inhibition” value is reported as inactive: -8.68% [at 46.1 µM].
In the case of `N#Cc1nc(Cc2cccc3ccccc23)oc1NCCCN1CCOCC1`, the Potency is reported as inconclusive: 8.2 µM [inhibitor, partial curve, poor fit].
In the case of `CCN(CC)Cc1c[nH]c2ccccc12`, the “activity change, negative = inhibition” value is reported as inactive: -16.9%.
For `Nc1c(C(=O)NCC2CCCO2)c2nc3ccccc3nc2n1Cc1ccco1` (configuration not stated), the Potency was inconclusive: 11.2 µM [inhibitor, single point].
With `CNC(=O)Oc1cccc(-c2cn3cc(Cl)ccc3n2)c1` the Potency was active: 2.82 µM.
With `CCOc1ccc(NC(=O)CSc2oc(-c3cccs3)nc2S(=O)(=O)c2ccc(Cl)cc2)cc1` the “activity change, negative = inhibition” value was inactive: -0.214% [at 46.1 µM].
With `N#Cc1ncc(-c2ccc3c(c2)OCCOCCOCCOCCOCCO3)nc1C#N` the Potency was inconclusive: 29.1 µM [inhibitor, single point].
For `NCCCCCCNS(=O)(=O)c1cccc2c(Cl)cccc12`, the Potency was inconclusive: 8.91 µM [inhibitor, partial curve, poor fit].
With `CCCCC(=O)NC(=S)Nc1cccc(NC(=O)c2ccccc2)c1` the Potency was inconclusive: 3.16 µM [activator, single point].
In the case of `Cc1ccc(C(C)C)c(OCC(O)CN2CC(C)OC(C)C2)c1` (configuration not stated), the Potency is reported as inconclusive: 35.5 µM [inhibitor, single point].
For `COC(=O)/C(=C\Nc1ccc(Cl)c2ccccc12)c1ncc(C(F)(F)F)cc1Cl`, the “activity change, negative = inhibition” value was inactive: 5.98%.
With `O=c1[nH]c(C2CCN(S(=O)(=O)c3cccc([N+](=O)[O-])c3)CC2)nc2c1nnn2Cc1ccccc1` the Potency was inconclusive: 35.5 µM [inhibitor, single point].
With `COc1ccc(-c2coc3cc(OC(C)=O)ccc3c2=S)cc1` the Potency was inconclusive: 3.16 µM [activator, single point].
With `COc1cccc(S(=O)(=O)NCc2ccc(C(=O)Nc3ccc(Cl)cc3)cc2)c1` the Potency was inconclusive: 35.5 µM [inhibitor, single point].
For `COc1cc(OC)cc(C(=O)NCc2ccc3c(c2)cc(C)n3C)c1`, the Potency was inconclusive: 7.08 µM [inhibitor, full curve, poor fit].
With `CCN(C(=O)c1coc(=O)c2ccccc12)c1cc(OC)ccc1OC` the “activity change, negative = inhibition” value was inactive: -18.7% [at 46.1 µM].
For `O=C1CC(SC(=Nc2ccccc2)Nc2ccccc2)C(=O)N1c1cccc2ccccc12` (configuration not stated), the Potency was inconclusive: 20 µM [inhibitor, single point].
With `O=C(COC(=O)CCS(=O)(=O)c1ccccc1)NC(=O)c1ccc(OC(F)F)cc1` the Potency was inconclusive: 12.6 µM [activator, single point].
With `CCN1C(=O)C(O)(C2COC(C)(C)CC2=O)c2cc(Br)ccc21` (configuration not stated) the Potency was inconclusive: 11.6 µM [inhibitor, partial curve].
For `COc1ccc(C(C(=O)NC2CCCC2)N(Cc2cccnc2)C(=O)c2snc(C(N)=O)c2N)cc1OC` (configuration not stated), the “activity change, negative = inhibition” value was inactive: -24.5% [at 46.1 µM].
With `CCOC(=O)CSc1[nH]c2cc(OC)ccc2c1[N+](=O)[O-]` the Potency was inconclusive: 35.5 µM [inhibitor, single point].
With `COc1cc(CNc2ccc3[nH]c(=O)[nH]c3c2)ccc1OCc1ccccc1C` the “activity change, negative = inhibition” value was inactive: -21.8%.

From PubChem BioAssay AID540276 (National Center for Advancing Translational Sciences (NCATS), 2011)
On the % scale 0 is the no-effect control and ±100 the full control effect; potency means the concentration at half of the fitted maximal effect.
